No constants are given. Whether binding was seen depends on the method and setting.
Assays:
[1] = target: T1, SLFN11 phosphomimetic mutant S753D (human), Q7Z7L1; test: cryo-EM structure; 4 μM SLFN11^S753D with 1 mM ATP; 25 mM Tris-HCl pH 7.5, 2 mM MgCl2, 1 mM DTT; 10 min on ice; data recorded at a tilt angle of 25°; both purified; settings: remark: other sources report otherwise
T1 chain: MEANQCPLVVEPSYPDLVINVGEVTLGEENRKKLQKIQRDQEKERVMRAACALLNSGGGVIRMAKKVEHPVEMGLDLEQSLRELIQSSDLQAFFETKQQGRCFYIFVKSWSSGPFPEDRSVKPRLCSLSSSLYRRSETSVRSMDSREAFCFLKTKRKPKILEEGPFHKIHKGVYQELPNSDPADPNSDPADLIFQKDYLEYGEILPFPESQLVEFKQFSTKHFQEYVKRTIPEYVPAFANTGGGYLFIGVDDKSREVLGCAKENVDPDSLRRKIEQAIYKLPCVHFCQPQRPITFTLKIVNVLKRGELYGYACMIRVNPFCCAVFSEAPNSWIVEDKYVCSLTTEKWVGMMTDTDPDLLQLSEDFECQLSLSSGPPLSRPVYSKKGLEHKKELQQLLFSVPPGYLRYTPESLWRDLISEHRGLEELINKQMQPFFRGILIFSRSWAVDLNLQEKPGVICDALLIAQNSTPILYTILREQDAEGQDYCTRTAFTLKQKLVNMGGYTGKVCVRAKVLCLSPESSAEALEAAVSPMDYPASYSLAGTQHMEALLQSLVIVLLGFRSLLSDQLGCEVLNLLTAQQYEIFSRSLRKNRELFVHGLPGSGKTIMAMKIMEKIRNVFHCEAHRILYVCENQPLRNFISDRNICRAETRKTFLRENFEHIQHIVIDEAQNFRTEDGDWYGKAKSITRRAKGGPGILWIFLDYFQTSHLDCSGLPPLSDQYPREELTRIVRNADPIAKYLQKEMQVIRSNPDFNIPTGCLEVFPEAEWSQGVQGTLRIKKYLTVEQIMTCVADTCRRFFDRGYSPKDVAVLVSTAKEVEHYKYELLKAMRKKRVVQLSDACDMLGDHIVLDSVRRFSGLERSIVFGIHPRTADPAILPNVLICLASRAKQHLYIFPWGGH

[2] = target: T1, SLFN11 phosphomimetic mutant S753D …; test: mass photometry; 50 nM SLFN11 in 25 mM Tris pH 7.5, 2 mM MgCl2, 1 mM DTT with variable concentrations of NaCl (80 mM NaCl in Fig. 4d, e); dimer to monomers; both purified; settings: remark: other sources report otherwise

B1: SLFN11 phosphomimetic mutant S753D, Q7Z7L1 1-901 (enzyme)
chain: T1 chain
binding [1]: no binding (tested: 4 μM)
binding [2]: no binding (tested: 50 nM)

Reference: publication PMC11615386, “Phosphorylation-mediated conformational change regulates human SLFN11” (Nature Communications, 2024)
